Source: article PMC11289294
No constants are given. Whether binding was seen depends on the method and setting. Binding seen in cells or lysates may run through a third protein. A yes stands for co-enrichment or nearness to the bait. Other partners may have been found. Where a sequence is shown, tags or fusion partners need not be part of it.

The chains behind the UniProt entries cited, without tags or fusion partners.
UniProt P19474: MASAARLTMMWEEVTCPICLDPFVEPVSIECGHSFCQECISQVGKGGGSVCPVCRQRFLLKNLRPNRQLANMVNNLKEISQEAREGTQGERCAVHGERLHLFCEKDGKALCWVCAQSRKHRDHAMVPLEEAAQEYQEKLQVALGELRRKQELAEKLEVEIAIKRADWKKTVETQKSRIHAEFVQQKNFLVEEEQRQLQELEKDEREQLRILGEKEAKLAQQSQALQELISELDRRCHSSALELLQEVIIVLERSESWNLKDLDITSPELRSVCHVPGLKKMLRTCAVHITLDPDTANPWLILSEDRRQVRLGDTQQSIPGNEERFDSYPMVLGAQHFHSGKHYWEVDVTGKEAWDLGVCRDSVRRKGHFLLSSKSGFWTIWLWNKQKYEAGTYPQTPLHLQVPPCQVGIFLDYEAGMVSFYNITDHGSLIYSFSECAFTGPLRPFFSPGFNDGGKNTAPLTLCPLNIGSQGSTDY

Target: T1, CCT2-Flag (chaperonin-containing TCP1 subunit 2), expressed in MDA-MB-231 cells (human) (UniProt P78371)
T1 sequence: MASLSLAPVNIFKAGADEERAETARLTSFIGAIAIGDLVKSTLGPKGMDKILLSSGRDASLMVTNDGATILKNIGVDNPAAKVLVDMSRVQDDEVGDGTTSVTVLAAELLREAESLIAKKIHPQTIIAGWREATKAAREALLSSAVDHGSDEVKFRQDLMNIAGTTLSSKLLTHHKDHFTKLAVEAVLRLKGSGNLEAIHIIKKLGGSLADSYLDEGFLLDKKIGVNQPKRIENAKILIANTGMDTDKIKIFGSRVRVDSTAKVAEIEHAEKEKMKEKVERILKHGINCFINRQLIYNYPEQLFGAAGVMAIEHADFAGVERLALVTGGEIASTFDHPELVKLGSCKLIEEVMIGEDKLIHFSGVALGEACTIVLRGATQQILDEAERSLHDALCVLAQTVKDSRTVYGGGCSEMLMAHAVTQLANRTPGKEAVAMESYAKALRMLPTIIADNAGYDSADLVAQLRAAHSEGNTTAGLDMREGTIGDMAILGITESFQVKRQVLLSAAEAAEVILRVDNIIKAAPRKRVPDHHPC
Assay: affinity purification with mass spectrometry; CCT2-Flag plasmid transfected into MDA-MB-231 cells; co-IP, silver staining, mass spectrometry (text: tandem affinity purification coupled with mass spectrometry)

binding: binds
Substance: Trim21 (ubiquitin E3 ligase), endogenous in human breast cancer cells (from UniProt P19474 1-475)
